Measured values as given in publication PMC8844414.
These are yes or no findings as the source states them, for the method shown. Binding seen in cells or lysates may run through a third protein. A yes stands for co-enrichment or nearness to the bait. Other partners may have been found.

The chains behind the UniProt entries cited, without tags or fusion partners.
UniProt Q92922: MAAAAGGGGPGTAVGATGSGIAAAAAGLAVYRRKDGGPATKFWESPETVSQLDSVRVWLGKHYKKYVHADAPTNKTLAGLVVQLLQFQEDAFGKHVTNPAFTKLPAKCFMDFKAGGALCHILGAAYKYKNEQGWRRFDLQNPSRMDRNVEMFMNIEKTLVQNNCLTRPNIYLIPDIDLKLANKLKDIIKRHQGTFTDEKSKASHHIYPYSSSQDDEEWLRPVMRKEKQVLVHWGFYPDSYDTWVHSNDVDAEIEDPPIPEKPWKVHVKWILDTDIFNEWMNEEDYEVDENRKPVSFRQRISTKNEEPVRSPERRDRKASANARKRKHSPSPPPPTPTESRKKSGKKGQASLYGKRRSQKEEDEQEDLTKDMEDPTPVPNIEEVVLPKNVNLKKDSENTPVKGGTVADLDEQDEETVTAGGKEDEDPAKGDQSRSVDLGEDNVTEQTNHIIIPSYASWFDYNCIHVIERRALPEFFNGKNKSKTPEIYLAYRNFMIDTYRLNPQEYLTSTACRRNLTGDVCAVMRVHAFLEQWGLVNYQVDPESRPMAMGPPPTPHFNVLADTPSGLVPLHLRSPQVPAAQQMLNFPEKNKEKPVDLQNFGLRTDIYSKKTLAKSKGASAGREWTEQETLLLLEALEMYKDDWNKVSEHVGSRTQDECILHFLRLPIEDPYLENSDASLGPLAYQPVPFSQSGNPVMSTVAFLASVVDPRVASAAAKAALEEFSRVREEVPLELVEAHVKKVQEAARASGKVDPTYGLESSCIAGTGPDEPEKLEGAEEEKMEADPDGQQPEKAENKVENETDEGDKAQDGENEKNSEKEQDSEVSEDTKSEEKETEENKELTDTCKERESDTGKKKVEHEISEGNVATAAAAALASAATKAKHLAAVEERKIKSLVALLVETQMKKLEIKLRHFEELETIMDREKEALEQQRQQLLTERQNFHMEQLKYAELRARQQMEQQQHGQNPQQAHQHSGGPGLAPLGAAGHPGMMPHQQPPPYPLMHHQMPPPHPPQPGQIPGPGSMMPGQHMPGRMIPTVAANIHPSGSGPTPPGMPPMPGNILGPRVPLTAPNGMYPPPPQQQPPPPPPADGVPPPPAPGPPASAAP
UniProt Q969G3: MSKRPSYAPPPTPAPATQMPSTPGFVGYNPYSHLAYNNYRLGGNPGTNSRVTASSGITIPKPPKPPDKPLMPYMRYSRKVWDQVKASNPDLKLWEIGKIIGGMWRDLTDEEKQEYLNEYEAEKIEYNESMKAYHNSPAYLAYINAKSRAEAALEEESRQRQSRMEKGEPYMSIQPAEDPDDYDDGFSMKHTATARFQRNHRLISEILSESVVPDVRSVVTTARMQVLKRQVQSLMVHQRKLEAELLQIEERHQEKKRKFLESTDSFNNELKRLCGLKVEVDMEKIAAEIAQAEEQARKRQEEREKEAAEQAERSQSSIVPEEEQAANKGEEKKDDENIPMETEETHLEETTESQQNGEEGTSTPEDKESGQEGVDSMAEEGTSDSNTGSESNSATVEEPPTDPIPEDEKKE

Biological target: T1, FOXP1 (human (HONE1, AGS, C666-1 cells)) (UniProt Q9H334)
T1 sequence: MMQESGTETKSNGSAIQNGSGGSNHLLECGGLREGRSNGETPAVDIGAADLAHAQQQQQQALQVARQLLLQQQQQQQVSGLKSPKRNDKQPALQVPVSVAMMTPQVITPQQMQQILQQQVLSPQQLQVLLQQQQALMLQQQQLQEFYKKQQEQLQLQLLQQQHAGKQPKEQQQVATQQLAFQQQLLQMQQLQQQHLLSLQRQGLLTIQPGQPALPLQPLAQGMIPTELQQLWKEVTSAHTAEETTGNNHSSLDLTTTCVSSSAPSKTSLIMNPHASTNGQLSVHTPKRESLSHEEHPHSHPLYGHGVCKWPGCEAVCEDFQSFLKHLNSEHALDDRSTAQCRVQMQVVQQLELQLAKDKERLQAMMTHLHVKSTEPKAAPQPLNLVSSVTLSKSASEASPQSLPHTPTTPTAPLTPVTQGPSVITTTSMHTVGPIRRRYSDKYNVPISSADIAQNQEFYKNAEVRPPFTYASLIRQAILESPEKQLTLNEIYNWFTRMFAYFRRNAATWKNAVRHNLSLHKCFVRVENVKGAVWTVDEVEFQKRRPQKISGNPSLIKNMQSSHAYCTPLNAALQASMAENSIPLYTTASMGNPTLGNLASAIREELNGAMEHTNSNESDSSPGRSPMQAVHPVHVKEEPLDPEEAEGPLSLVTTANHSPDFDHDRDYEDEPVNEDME
Assay: affinity purification with mass spectrometry; Co-IP combined with mass spectrometry for FOXP1; eluates resolved by SDS-PAGE, Coomassie-stained bands that differed from the control excised, trypsin digest, LC-MS/MS (LTQ Orbitrap Velos); cell line not stated

Substance | binding
SMARCC1 (from UniProt Q92922 1-1105) | binds
SMARCE1 (from UniProt Q969G3 1-411) | binds
